Assay results taken from US20060073141A1.
Results are given in words; binding and its absence hold for the method and conditions named. Some entries that bind do so weakly or less than the wild type.

T1: mouse VEGF (mouse) (UniProt Q00731)
T1 sequence (looked up): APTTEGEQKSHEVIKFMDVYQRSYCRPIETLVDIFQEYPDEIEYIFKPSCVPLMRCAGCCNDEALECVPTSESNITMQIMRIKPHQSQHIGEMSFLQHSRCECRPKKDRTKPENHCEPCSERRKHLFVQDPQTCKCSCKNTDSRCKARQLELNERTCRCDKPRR


Biological target: T1, mouse VEGF (mouse)
Assay: ELISA, cross-reactivity with mouse VEGF

| Binder | binding |
| --- | --- |
| TAR15-5 (protein) VH: EVQLLESGGGLVQPGGSLRLSCAASGFTFRLYDMVWVRQAPGKGLEWVSYISSGGSGTYYADSVKGRFTISRDNSKNTLYLQMNSLRAEDTAVYYCAKAGGRASFDYWGQGTLVTVSS | binds |
| TAR15-8 (protein) VH: EVQLLESGGGLVQPGGSLRLSCAASGFTFQWYPMWWVRQAPGKGLEWVSLIEGQGDRTYYADSVKGRFTISRDNSKNTLYLQMNSLRAEDTAVYYCAKAGDRTAGSRGNSFDYWGQGTLVTVSS | binds |
| TAR15-26 (protein) VH: EVQLLESGGGLVQPGGSLRLSCAASGFTFGAYPMMWVRQAPGKGLEWVSEISPSGSYTYYADSVKGRFTISRDNSKNTLYLQMNSLRAEDTAVYYCAKDPRKFDYWGQGTLVTVSS | binds |
